Laboratory results reported in patent publication US9745567B2, “Compositions and methods for treating multiple sclerosis” (REVALESIO CORPORATION, priority 2008, dated 2017).
At least one compound was matched to its structure with a doubt left.

Experiments:
[1] = system: Matrix Metalloproteinase (MMP); details: tetracyclines: at sub-antibiotic levels; cited from earlier work
[2] = system: ovalbumin sensitized rats; assay: Brown Norway rat ovalbumin sensitization model with Budesonide; assay type: in vivo, Brown Norway rats

| SMILES | inhibition of MMPs [1] | blood eotaxin levels ([2]; Budesonide 250 ug/kg) | Eosinophil % ([2]; Budesonide 750 ug/kg where used) | blood eotaxin levels ([2]; Budesonide 750 ug/kg, 6 and 24 hours) | Penh values ([2]; immediately after the challenge, Budesonide 500 and 750 ug/kg alone or with any test fluid) | tidal volume ([2]; immediately after the challenge, Budesonide 500 and 750 ug/kg where used) | total eosinophil count ([2]; nebulized once daily 7 days, Budesonide 750 μg/Kg where used, relative to NS) |
| --- | --- | --- | --- | --- | --- | --- | --- |
| C[C@H]1c2cccc(O)c2C(=O)C2=C(O)[C@]3(O)C(=O)C(C(N)=O)=C(O)[C@@H](N(C)C)[C@@H]3[C@@H](O)[C@@H]21 [Doxycycline] | effectively inhibit MMP activity |  |  |  |  |  |  |
| CN(C)c1ccc(O)c2c1C[C@H]1C[C@H]3[C@H](N(C)C)C(O)=C(C(N)=O)C(=O)[C@@]3(O)C(O)=C1C2=O [Minocycline] | effectively inhibit MMP activity |  |  |  |  |  |  |
| CCCC1O[C@@H]2C[C@H]3[C@@H]4CCC5=CC(=O)C=C[C@]5(C)[C@H]4[C@@H](O)C[C@]3(C)[C@]2(C(=O)CO)O1 (some centres unmarked) [Budesonide] |  | only had a notable effect at the later time point | did not have a significant effect | reduced the blood eotaxin levels | failed to significantly affect the Penh values | no change in tidal volumes | reduced the total eosinophil count |
